Assay results reported in paper PMC3728025.
These are yes or no findings as the source states them, for the method shown.

Tests used:
3Cys3Ala Atox1 (human) [1] = molecular target: 3Cys3Ala Atox1 (human) (UniProt O00244); assay: SEC; Superdex 75 10/300 analytical column, 6°C, 40 mM TrisHCl, 50 mM NaCl, pH 7.6; 150 µM apo-protein, 100 µl injected; no Cu, no CisPt; both purified
3Cys3Ala Atox1 (human) [2] = molecular target: 3Cys3Ala Atox1 (human) (UniProt O00244); assay: SEC; Superdex 75 10/300, 6°C, 40 mM TrisHCl, 50 mM NaCl, pH 7.6; 150 µM protein with 1 eq. Cu and 1 or 5 eq. CisPt, or preformed protein-CisPt (1:1) treated with Cu; incubated 10 min; both purified
3Cys3Ala Atox1 (human) [3] = molecular target: 3Cys3Ala Atox1 (human) (UniProt O00244); assay: SEC; Superdex 75 10/300, 6°C, 40 mM TrisHCl, 50 mM NaCl, pH 7.6; 150 µM protein with 1 eq. CuCl2 pre-added; no CisPt; both purified
3Cys3Ala Atox1 (human) [4] = molecular target: 3Cys3Ala Atox1 (human) (UniProt O00244); assay: SEC; Superdex 75 10/300, 6°C, 40 mM TrisHCl, 50 mM NaCl, pH 7.6; 150 µM apo-protein with 5 eq. (excess) CisPt, incubated 10 min; both purified

Measured: binding

B1: 3Cys3Ala Atox1 (protein, UniProt O00244 1-68)
chain: MPKHEFSVDMTAGGAAEAVSRVLNKLGGVKYDIDLPNKKVAIESEHSMDTLLATLKKTGKTVSYLGLE
no binding (tested: 150 µM): all assays above
